Screening data, single-dose tests

A: 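Whole-parasite assay of Trypanosoma brucei over 72 hours; the read-out is not stated. Tested at 30 µM. Direction is inferred from retests: higher values go with stronger inhibition. Values scatter widely below zero; nearly all retest evidence comes from the higher of the two concentrations used. Of about 64,000 compounds tested this way, about 940 (1.5%) reached 50% or more in at least one test.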
B: 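Assay of Toxoplasma gondii numbers, read through their beta-galactosidase reporter with a colour substrate. Compounds at 10 µM. The record gives no direction; the compounds picked for IC50 retests had high values, so higher reads as fewer parasites. About 67,000 compounds were tested under these conditions; 0.38% (about 260) showed 50% or more at least once.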

Each number is a percent effect as filed. How 0% and 100% were set is not recorded. Most values in the screen are low, and negative values occur. The compounds are a random part of those screened. A dash means the value is not listed here; it may have been measured.

compound	A	B
CC(C)c1noc(C[S+]([O-])CC(=O)Nc2ccc(F)c(F)c2)n1 (stereo unspecified)	-13.08	7.569
CCNC(=O)N1CCC(c2ccccc2)C1 (stereo unspecified)	3.953	10.65
O=C(C1CCOCC1)N1CCc2ncc(CN3CCCC3)n2CC1.O=C(O)C(F)(F)F	-192.2	-21.13
CSc1cccc(CN2CCn3nc(CNC(C)=O)cc3C2)c1	-4.932	-34.27
COCC(NC1CCSCC1)c1ccnn1C (stereo unspecified)	-24.37	-2.213
CC(=O)NCCn1ccc(-c2ccccn2)n1	-8.591	-0.9766
CC(NC(=O)N1CCC2(C1)OCCO2)c1cccc(Cl)c1 (stereo unspecified)	-60.32	-1.294
COc1cc(C2CC(=O)Oc3cc(C)[nH]c(=O)c32)ccc1O (stereo unspecified)	-14.63	26.17
O=C(NCc1ccc(-n2cncn2)nc1)N(CC1CCOC1)C1CC1 (stereo unspecified)	-10.23	4.965
COc1cc(C)nc(N2CCN(C(=O)CCc3cccs3)CC2)n1	-24.46	-0.6844
Cc1cc(N)nc(SC2CCN(c3ccccc3)C2=O)n1 (stereo unspecified)	-36.3	-55.29
COC(=O)C(O)C1CCN(CCc2ccccn2)CC1 (stereo unspecified)	-47.43	4.489
COc1ccc(CN(Cc2cn(C)nc2C)CC2CCCO2)c(OC)c1 (stereo unspecified)	-15.49	14.21
Cc1cc(NC(=O)CCn2nc(C)c3ccccc32)n(C(C)C)n1	6.259	-31.4
Cc1ccc(OCC(=O)NS(=O)(=O)c2c(C)noc2C)cc1C	-11.05	14.21
Cc1ccc(CC(NC(=O)Cn2cnnn2)c2ccccn2)cc1 (stereo unspecified)	-14.18	19.3
CCc1nc(NC(=O)Cc2csc(-c3nnc[nH]3)n2)sc1C	-54.88	-17.32
CCOCCC(=O)NCc1ccnc(NC2CC2)c1	-1.896	-0.7545
Cc1cc(C)n(-c2ccc(C(=O)NCC(CO)Cc3cccs3)cc2)n1 (stereo unspecified)	-0.4177	-25.51
Fc1cnc(N2CCC3(CC2)CN(Cc2ccccn2)CCO3)nc1.O=C(O)C(F)(F)F.O=C(O)C(F)(F)F	-33.22	-5.984
Cc1noc(C(C)N2CCN(CCC(=O)N3CCOCC3)CC2)n1 (stereo unspecified)	-18.56	-5.855
COCCN(Cc1ccoc1)C(=O)CSc1ccc(F)cc1	-47.75	2.126
COC(=O)[C@H](C)NC(=O)Cn1ccc2ccc(F)cc21	-	5.142
O=C(C1CCCCO1)N1CCc2ncnc(NCCO)c2CC1 (stereo unspecified)	-18.16	-
CC(SCCC(=O)NC(N)=O)c1c(F)cccc1F (stereo unspecified)	-46.19	2.462
O=C(Cc1ccsc1)N1CCN(CCOc2ccccc2)CC1	18.37	-1.469
COc1ccc(SC(C)C(=O)N2CCC(C(N)=O)CC2)cc1 (stereo unspecified)	-9.992	7.653
Cc1ccc(NC2CCN(C(=O)CCC3CCCO3)CC2)nn1 (stereo unspecified)	-618.5	-13.36
CC(NC(=O)Cn1cccn1)c1ccc2c(c1)OCCCO2 (stereo unspecified)	-12.07	0.2118
CS(=O)(=O)Cc1nc(C2CC2)nn1-c1ccccn1	-53.36	1.187
CSc1ccc(NC(=O)NCc2nncn2C2CC2)cc1F	-15.05	6.861
O=C(Nc1nccs1)c1csc(NC2CCCC2)n1	93.86	94.63
O=C(NCc1cccnc1)NCC(O)c1cccc(C(F)(F)F)c1 (stereo unspecified)	-72.04	0.7572
COCC(O)CN(C)c1cc(C(F)(F)F)nc(-c2cccnc2)n1 (stereo unspecified)	57.96	14.53
CCn1nc(C)c(C(=O)Nc2ccc3c(c2)C(C)(C)C(=O)N3C)c1C	-64.55	14.53
CCOc1cc(=O)n2c(c1C(=O)OCc1ccc(C)cc1)CCCC2	-46.63	-
CC(c1ccco1)N(C)Cc1cc2cc3c(cc2[nH]c1=O)OCO3 (stereo unspecified)	3.302	11.66
CC(c1nc(C2CC2)no1)N1CCN(Cc2ccsc2)CC1 (stereo unspecified)	-7.771	-6.391
CN1CCN(CCOc2ccc(NC(=O)c3ccncc3)cc2)CC1	-9.12	6.081
CC(C)c1ccc(C(CN)N2CCc3sccc3C2)cc1 (stereo unspecified)	99.87	87.38
c1csc(-c2cc(CN3CCN(c4cnccn4)CC3)no2)c1	12.84	-0.4072
CCOc1cc(CNC(=O)NCc2nc(C)c(C)s2)ccn1	-17.27	5.316
c1nc2c(c(N3CCOC(Cn4cncn4)C3)n1)CCC2 (stereo unspecified)	-16.56	-1.546
O=C(NCCCF)Nc1ccc2nc(N3CCOCC3)oc2c1	-4.504	-4.446
O=C(C1CCCO1)N1CCCn2c(nnc2Cn2cccn2)C1 (stereo unspecified)	-43.96	-4.261
Cc1ccc(NC(=O)N2CCC3(CCC(C(=O)N(C)C)O3)CC2)cc1 (stereo unspecified)	-18.68	-3.152
CCCNC(=O)c1nn(CC)cc1Cl	-5.459	10.84

For reference, 4 entries once more:

compound,A,B
O=C(NCCCF)Nc1ccc2nc(N3CCOCC3)oc2c1,-4.504,-4.446
O=C(NCc1cccnc1)NCC(O)c1cccc(C(F)(F)F)c1 (stereo unspecified),-72.04,0.7572
Fc1cnc(N2CCC3(CC2)CN(Cc2ccccn2)CCO3)nc1.O=C(O)C(F)(F)F.O=C(O)C(F)(F)F,-33.22,-5.984
CC(c1nc(C2CC2)no1)N1CCN(Cc2ccsc2)CC1 (stereo unspecified),-7.771,-6.391

Measurements from “University of Dundee, Small-Polar-MMV Screening Library” (2021), ChEMBL document CHEMBL3988442.